The assay deals with T1, FliH (Salmonella) (UniProt P15934).
T1 sequence: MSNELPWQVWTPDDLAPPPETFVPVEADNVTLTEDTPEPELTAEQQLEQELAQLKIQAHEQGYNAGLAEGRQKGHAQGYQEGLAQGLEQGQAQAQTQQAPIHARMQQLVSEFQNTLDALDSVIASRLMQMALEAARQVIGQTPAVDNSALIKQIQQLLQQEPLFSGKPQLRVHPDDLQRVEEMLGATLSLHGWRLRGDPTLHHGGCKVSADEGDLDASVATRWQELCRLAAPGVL
Put plainly: co-purification (Ni affinity, then SEC); cells expressing the FliH2/FliI complex lysed in 50 mM Tris-HCl pH 8.0, 500 mM NaCl; HisTrap HP or Ni-NTA agarose, imidazole elution; His tag retained; Superdex 200 in 20 mM Tris-HCl pH 7.5, 125 mM KCl.

Chains of the proteins cited; added tags and fusions are not shown.
UniProt P26465: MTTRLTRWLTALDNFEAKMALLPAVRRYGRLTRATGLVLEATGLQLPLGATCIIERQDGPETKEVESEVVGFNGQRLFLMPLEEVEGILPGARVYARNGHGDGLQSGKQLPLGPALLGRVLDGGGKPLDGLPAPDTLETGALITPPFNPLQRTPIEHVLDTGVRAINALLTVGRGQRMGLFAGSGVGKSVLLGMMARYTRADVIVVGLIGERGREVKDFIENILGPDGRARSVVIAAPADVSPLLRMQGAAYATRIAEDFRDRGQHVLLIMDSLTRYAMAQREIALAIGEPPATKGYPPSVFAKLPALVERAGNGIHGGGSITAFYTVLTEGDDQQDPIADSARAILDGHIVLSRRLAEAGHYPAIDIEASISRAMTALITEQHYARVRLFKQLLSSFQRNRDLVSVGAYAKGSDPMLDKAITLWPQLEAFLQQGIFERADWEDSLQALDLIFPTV

These are yes or no findings as the source states them, for the method shown. Some entries that bind do so weakly or less than the wild type.

Take “FliI (from UniProt P26465 1-456) (enzyme)”: the binding entry is listed as “binds”.

B1: FliH (protein, UniProt P15934 1-235)
chain: MSNELPWQVWTPDDLAPPPETFVPVEADNVTLTEDTPEPELTAEQQLEQELAQLKIQAHEQGYNAGLAEGRQKGHAQGYQEGLAQGLEQGQAQAQTQQAPIHARMQQLVSEFQNTLDALDSVIASRLMQMALEAARQVIGQTPAVDNSALIKQIQQLLQQEPLFSGKPQLRVHPDDLQRVEEMLGATLSLHGWRLRGDPTLHHGGCKVSADEGDLDASVATRWQELCRLAAPGVL
For the molecule B1, the binding result is listed as “binds”.

Values taken from publication PMC6020293, “In Vitro Reconstitution of Functional Type III Protein Export and Insights into Flagellar Assembly” (mBio, 2018).
